From publication PMC4957287

Protein sequences, listed by entry. Tags and fused reporters are not part of them. Lines headed by an entry give the natural chain unless they say otherwise; changes in a name come on top. Residues count along the entry.
UniProt Q10589, residues 1-161: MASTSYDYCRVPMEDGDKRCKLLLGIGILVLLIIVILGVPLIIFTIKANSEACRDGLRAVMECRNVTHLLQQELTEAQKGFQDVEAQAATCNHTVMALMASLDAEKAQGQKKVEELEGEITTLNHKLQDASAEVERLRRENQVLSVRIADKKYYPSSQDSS
UniProt O95831: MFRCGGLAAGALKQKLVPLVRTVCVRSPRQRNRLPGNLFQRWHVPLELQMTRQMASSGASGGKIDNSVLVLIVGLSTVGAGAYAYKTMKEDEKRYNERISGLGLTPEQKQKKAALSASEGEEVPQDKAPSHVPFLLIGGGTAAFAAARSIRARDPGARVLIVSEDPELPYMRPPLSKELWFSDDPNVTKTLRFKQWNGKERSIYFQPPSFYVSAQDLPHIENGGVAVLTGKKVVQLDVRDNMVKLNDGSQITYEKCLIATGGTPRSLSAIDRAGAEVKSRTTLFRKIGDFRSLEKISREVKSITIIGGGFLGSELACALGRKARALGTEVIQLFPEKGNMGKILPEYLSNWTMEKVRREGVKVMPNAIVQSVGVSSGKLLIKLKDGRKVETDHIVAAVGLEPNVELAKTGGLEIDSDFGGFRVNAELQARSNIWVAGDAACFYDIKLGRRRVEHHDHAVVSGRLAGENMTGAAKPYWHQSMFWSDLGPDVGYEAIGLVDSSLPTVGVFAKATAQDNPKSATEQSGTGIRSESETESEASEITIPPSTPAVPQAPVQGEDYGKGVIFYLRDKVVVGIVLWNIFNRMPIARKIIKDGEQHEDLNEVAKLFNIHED

Biological target: CD317 (human (endogenous in Hela)) (UniProt Q10589)
Test: co-IP; Hela cells cultured in normal or serum-deprivation condition for 24 h; lysates immunoprecipitated with anti-CD317 or control Ig; Western blot of precipitates and lysates

binding: no binding
Substance: apoptosis-inducing factor (from UniProt O95831)

These are yes or no findings as the source states them, for the method shown. In cells and extracts the contact can be indirect.
